Each structure is given as a SMILES string. The list shows a part of the results. The main result of the screen is listed elsewhere. These columns were measured beside it and carry no call. Compounds called inactive in the main read-out are mostly missing here. The note in brackets gives the kind of curve behind each potency; many fits are weak.

What is called AC50 is the concentration at which the activity in the assay is half-maximal.

This experiment in a line: IkB Signaling. Conditions: ABC-DLBCL IkBa-CBG/CBR dual luciferase ratio (green luciferase fused to IkBa over red control in OCI-Ly3 lymphoma cells), 4 h; measured here: control luc red channel unless noted. Summed up: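 Curves were fitted separately to fusion (green), unfused (red) and ratio luminescence, then classed by r2, magnitude and activity. Cells: OCI-Ly3, 4 h compound plus doxycycline at 37C; 10 uM MG-132 defined full response.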
For `Clc1ccccc1-c1nnc(SCc2nc(-c3ccccc3)no2)n1-c1ccccc1`, the AC50 is 12.6 µM [falling, partial curve].
For the compound `CCc1ccccc1NC(=O)Cn1c(=O)n(CCc2ccccc2)c(=O)c2ccccc21`, the AC50 is 3.98 µM [falling, single point].
To `O=C(Nc1ccc2nc(SCC(=O)N3CCOCC3)sc2c1)c1cccc(F)c1` belongs 15.8 µM [falling, partial curve].
To `CCOC(=O)N1CCN(S(=O)(=O)N2CCCC(C(=O)NCc3ccc(OC)cc3OC)C2)CC1` (configuration not stated) belongs 3.16 µM [falling, single point]; to `Cn1c(C(=O)N2CCC(C(=O)N3CCN(c4ccccc4)CC3)CC2)cc2sccc21`, 31.6 µM [falling, single point].
As for `Cc1ccc(CNC(=O)c2c[nH]n3c(=O)c(Cc4ccc(F)cc4Cl)c(C)nc23)cc1`, the AC50 is 7.94 µM [falling, full curve].
On to `Cc1nnc(N2CCN(c3cccc(C(F)(F)F)c3)CC2)c2c1nnn2Cc1ccccc1`, for which the AC50 was 25.1 µM [falling, partial curve].
Take `Cc1noc2ncnc(NCc3ccc(Cl)cc3)c12`: the AC50 is 15.8 µM [falling, partial curve].
For the compound `Cc1ccc(-c2cc(NC(=O)C(C)Oc3ccccc3F)on2)cc1` (configuration not stated), the AC50 is 1 µM [falling, partial curve].
`Cc1cc(NC(=O)C2CCCN(S(=O)(=O)c3cn(C)cn3)C2)ccc1Br` (configuration not stated): the AC50 was 25.1 µM [falling, partial curve, poor fit].
As to `COc1ccc(NC(=O)C(=O)NCc2ccco2)c(OC)c1`, the AC50 is 12.6 µM [falling, partial curve].
As for `O=C(Nc1ccc(C(=O)OCc2cc(=O)n3ccsc3n2)cc1)c1cccc(F)c1`, the AC50 was 0.251 µM [rising, full curve].
The figure for `COc1ccc(Nc2c3c(nc4ccc(NC(=O)c5cc(Cl)ccc5OC)cc24)CCCC3)cc1OC` is 7.94 µM [falling, full curve]; for `COc1ccc(OC)c(CNC(=O)C2CCN(S(=O)(=O)c3ccc4[nH]c(=O)oc4c3)CC2)c1` it is 1.26 µM [falling, full curve, poor fit].
In the case of `Cc1ccc(NCc2nnc(SCC(=O)Nc3ncc(C)s3)n2CC2CCCO2)c(C)c1` (configuration not stated), the AC50 was 12.6 µM [falling, partial curve].
As to `O=C(Nc1nc(-c2ccco2)c(-c2ccco2)s1)C1CC(=O)N(c2ccc3c(c2)OCCO3)C1` (configuration not stated), the AC50 was 39.8 µM [rising, single point] [measured here: IkB-luc green channel].
With `Oc1c(C(c2ccc(Cl)cc2Cl)N2CCN(Cc3ccccc3)CC2)sc2nc(-c3ccco3)nn12` (configuration not stated), the AC50 was 39.8 µM [falling, single point].
As for `O=C=Nc1ccc(Cl)c(Cl)c1`, the concentration at half-maximal activity (AC50) was 5.01 µM [falling, full curve].
The figure for `COCCNC(=O)CCCn1c(SCc2ccccc2C)nc2c(sc3ccccc32)c1=O` is 10 µM [falling, partial curve]; for `CCn1cc(/C=C(\NC(=O)c2ccccc2Cl)C(=O)NCCCn2ccnc2)c2ccccc21` it is 12.6 µM [falling, partial curve].
For `Cc1ccc(C2N3CC4(C)CN2CC(c2ccccc2)(C3)C4=O)cc1` (configuration not stated), the AC50 was 31.6 µM [falling, partial curve].
Turning to `Cc1ccc(CNC(=O)c2ccc(N3Cc4ccccc4Oc4ncccc43)s2)cc1`, the half-maximal activity concentration (AC50) was 3.98 µM [falling, partial curve].
Regarding `CCOc1ccc(C(=O)Nc2ccc(C(=O)OCc3cc(=O)n4c(C)csc4n3)cc2)cc1`, the half-maximal activity concentration (AC50) was 31.6 µM [falling, single point].
Regarding `O=C(c1ccccc1C(=O)N1CCN(c2ccccc2)CC1)N1CCN(c2ccccc2)CC1`, the AC50 is 7.94 µM [falling, partial curve].
To `CCC(=O)Nc1ccc(-c2nc3ncccc3o2)cc1C` belongs 1 µM [rising, full curve]; to `CC1CCN(C(=O)c2cc(-c3ccc(Cl)c(Cl)c3)on2)CC1`, 0.01 µM [falling, full curve]; to `Cc1ccc2c(c1)c1c(c(=O)n(-c3cccc(Cl)c3)c(=O)n1CC(N)=O)n2C`, 0.501 µM [rising, partial curve].
As for `CCCc1cc(=O)oc2cc(C)c3c(C)coc3c12`, the half-maximal activity concentration (AC50) was 2.51 µM [rising, full curve].
Turning to `COc1ccc(OCC(=O)Nc2cc(-c3nc4ccccc4o3)ccc2Cl)cc1`, the AC50 was 1.58 µM [rising, partial curve].
Regarding `Cc1ccc(NC(=O)CN2C(=O)c3ccccc3Sc3ccc(C(=O)N4CCOCC4)cc32)cc1C`, the AC50 was 7.94 µM [falling, full curve].
As for `CC1CCN(C(=O)c2ccc(C(=O)N3CCC(C)CC3)cc2)CC1`, the AC50 is 158 nM [rising, full curve, poor fit] [measured here: IkB-luc green channel].
As for `O=C1Nc2ccccc2C1Cc1ccc(Br)cc1` (configuration not stated), the AC50 was 3.98 µM [rising, partial curve, poor fit].
`Oc1ccccc1Cn1c(-c2ccccc2O)nc2ccccc21`: the AC50 was 20 µM [falling, partial curve].
Turning to `Cc1ccccc1OCCSc1nc2ccc(NC(=O)c3ccco3)cc2s1`, the AC50 was 31.6 µM [falling, single point].
To `O=C(CSc1nc(=O)n(Cc2ccccn2)c2c1CCC2)Nc1cccc(Cl)c1` belongs 25.1 µM [falling, partial curve]; to `COCCNC(=O)CSc1nc(-c2ccc(C)cc2)[nH]c1-c1ccc(OC)cc1`, 31.6 µM [falling, single point]; to `O=C(Nc1ccc(Cl)cc1F)c1cc(S(=O)(=O)NC2CCCCCC2)ccc1F`, 0.794 µM [falling, full curve].
As for `Cc1cccc(NC(=O)c2oc3ccccc3c2NC(=O)Cc2coc3cc(C)cc(C)c23)c1`, the AC50 was 15.8 µM [falling, single point].
To `Cc1ccccc1OCC(=O)Nc1ccccc1C(=O)OCc1cc(=O)n2nc(C3CC3)sc2n1` belongs 2.51 µM [falling, full curve]; to `Cc1nc2ncnn2c(C)c1CCC(=O)NC(C)c1ccc2c(c1)OCCO2` (configuration not stated), 5.01 µM [falling, partial curve].
With `COc1ccc(Cl)cc1NC(=O)CSc1nc(=O)[nH]c2c1CCC2`, the AC50 is 39.8 µM [falling, single point].
As to `COc1cccc(NC(=O)CSc2nnc(-c3cc(-c4ccccn4)nc4ccccc34)o2)c1`, the AC50 is 10 µM [falling, partial curve].
Regarding `Cc1cc(NC(=O)c2cc(-c3ccc(F)cc3)on2)nn1Cc1ccc(Cl)cc1`, the AC50 is 6.31 µM [falling, partial curve].
Turning to `Cc1ccc2c(CC(=O)Nc3ccc(S(=O)(=O)N4CCCC(C)C4)cc3)coc2c1` (configuration not stated), the AC50 is 25.1 µM [falling, partial curve].
The figure for `O=c1cc(-c2ccc(Cl)cc2)[nH][nH]1` is 3.98 µM [falling, partial curve].
In the case of `OC(c1ccccc1)c1nc2ccccc2n1Cc1c(F)cccc1Cl` (configuration not stated), the AC50 is 25.1 µM [falling, single point].
To `COc1ccccc1C1C(C(=O)Nc2ccccc2)=C(C)Nc2nc(-c3ccccc3)nn21` (configuration not stated) belongs 20 µM [falling, partial curve].
Regarding `CC(=O)N1CCc2cc(S(=O)(=O)NC(Cc3ccccc3)C(=O)Nc3cc(C)cc(C)c3)ccc21` (configuration not stated), the half-maximal activity concentration (AC50) was 10 µM [falling, partial curve].
As to `CC1CCCCN1CCCNC(=O)Cn1ncc2c3ccccc3n(Cc3ccccc3)c2c1=O` (configuration not stated), the concentration at half-maximal activity (AC50) is 7.94 µM [falling, partial curve].
`COc1ccccc1N1CCN(Cc2nc(-c3cc(OC)c(OC)c(OC)c3)no2)CC1`: the AC50 was 20 µM [falling, single point].
Take `Cc1ccc(Cl)cc1N1CCN(C(=O)CCc2nnc3n(C)c(=O)c4ccccc4n23)CC1`: the AC50 is 20 µM [falling, partial curve].
Take `COc1ccc(CCN2C(=O)CN(C3CCCCCC3)C(=O)C2c2ccc(Cl)cc2)cc1OC` (configuration not stated): the half-maximal activity concentration (AC50) is 12.6 µM [falling, partial curve].
Take `COc1ccccc1NC(=O)CSc1nnc(Cc2cccn2C)n1-c1ccc(F)cc1`: the AC50 was 15.8 µM [falling, partial curve].
Consider `O=C(Cn1ncc2c3ccccc3n(Cc3ccccc3)c2c1=O)NCCCN1CCCCC1`, for which the AC50 was 20 µM [falling, single point].
The figure for `CC1CN(C(=O)N2CCC(C(=O)NCc3ccco3)CC2)c2ccccc2O1` (configuration not stated) is 12.6 µM [falling, partial curve]; for `CC1CCN(c2nc3ccccc3nc2C(F)(F)F)CC1` it is 7.94 µM [rising, partial curve].
Regarding `Cc1ccc2ncc(C(=O)c3ccc(C)c(C)c3)c(S(=O)(=O)c3ccccc3)c2c1`, the AC50 is 2.51 µM [falling, full curve].
`COc1ccc(Cl)cc1C(=O)CSc1nc(N)cc(N)n1`: the AC50 was 12.6 µM [falling, partial curve].
Turning to `Cc1cccc(CN2C(=O)c3ccccc3Sc3ccc(C(=O)NCCCN4CCOCC4)cc32)c1`, the AC50 was 15.8 µM [falling, partial curve].
The figure for `Cc1[nH]c2ccccc2c1Cc1nnc(SCC(=O)NCc2ccco2)o1` is 15.8 µM [rising, partial curve] [measured here: IkB-luc green channel]; for `Cc1ccc(-c2nc(CS(=O)(=O)CC(=O)N3CCN(c4ccccc4)CC3)c(C)o2)cc1` it is 20 µM [falling, partial curve]; for `COc1cc(Br)cc2cc(S(=O)(=O)c3ccccc3)c(=O)oc12` it is 3.98 µM [falling, full curve].

For the origin of these results see PubChem BioAssay AID445 (National Center for Advancing Translational Sciences (NCATS), 2006).
